According to paper PMC3276143:
No constants are given. Whether binding was seen depends on the method and setting. Binding seen in cells or lysates may run through a third protein. For some of these results: Tags and fused reporters may be left off the sequences shown.

Amino acid sequences for entries named in this document (tags omitted).
UniProt P06243: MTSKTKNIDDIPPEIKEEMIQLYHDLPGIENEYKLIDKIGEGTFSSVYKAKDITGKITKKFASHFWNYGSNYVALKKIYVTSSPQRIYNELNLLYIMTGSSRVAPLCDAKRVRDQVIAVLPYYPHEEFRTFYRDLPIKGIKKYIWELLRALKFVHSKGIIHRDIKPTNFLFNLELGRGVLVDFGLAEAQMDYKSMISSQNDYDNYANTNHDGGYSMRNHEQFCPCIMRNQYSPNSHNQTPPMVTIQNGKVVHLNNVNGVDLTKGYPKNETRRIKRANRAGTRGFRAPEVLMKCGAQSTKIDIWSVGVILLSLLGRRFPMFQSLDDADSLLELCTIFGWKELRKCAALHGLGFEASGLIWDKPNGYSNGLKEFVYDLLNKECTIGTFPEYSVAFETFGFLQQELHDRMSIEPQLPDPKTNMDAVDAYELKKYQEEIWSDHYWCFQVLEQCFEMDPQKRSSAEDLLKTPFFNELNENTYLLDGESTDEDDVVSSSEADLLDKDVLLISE
UniProt O00311: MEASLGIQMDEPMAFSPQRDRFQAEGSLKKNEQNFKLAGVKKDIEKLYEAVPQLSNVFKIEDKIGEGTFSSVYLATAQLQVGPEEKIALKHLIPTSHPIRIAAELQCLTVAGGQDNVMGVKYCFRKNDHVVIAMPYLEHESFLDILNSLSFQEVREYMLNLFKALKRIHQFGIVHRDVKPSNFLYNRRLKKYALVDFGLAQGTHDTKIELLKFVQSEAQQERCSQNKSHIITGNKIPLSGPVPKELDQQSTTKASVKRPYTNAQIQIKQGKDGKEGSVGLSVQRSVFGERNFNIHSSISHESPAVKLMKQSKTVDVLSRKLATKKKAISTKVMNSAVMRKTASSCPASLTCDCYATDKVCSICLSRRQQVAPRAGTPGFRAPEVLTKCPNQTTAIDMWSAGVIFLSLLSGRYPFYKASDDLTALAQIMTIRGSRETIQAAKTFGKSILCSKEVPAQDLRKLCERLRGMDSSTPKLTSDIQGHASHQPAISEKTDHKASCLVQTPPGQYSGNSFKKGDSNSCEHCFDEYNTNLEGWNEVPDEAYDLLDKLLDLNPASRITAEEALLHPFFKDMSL

Key:
[1] = target: T1, TAP-ScDbf4 (S. cerevisiae Dbf4 fused to a tandem affinity purification tag) (S. cerevisiae) (UniProt P32325); assay: co-IP; TAP-tagged bait isolated from yeast cell extract on rabbit IgG coupled Epoxy M270 Dynabeads, 2 h at 4°; lysis buffer 25 mM Tris-HCl pH 8.0, 150 mM NaCl, 0.1 mM EDTA, 0.1% NP40; bound proteins detected by Western blotting
T1 sequence: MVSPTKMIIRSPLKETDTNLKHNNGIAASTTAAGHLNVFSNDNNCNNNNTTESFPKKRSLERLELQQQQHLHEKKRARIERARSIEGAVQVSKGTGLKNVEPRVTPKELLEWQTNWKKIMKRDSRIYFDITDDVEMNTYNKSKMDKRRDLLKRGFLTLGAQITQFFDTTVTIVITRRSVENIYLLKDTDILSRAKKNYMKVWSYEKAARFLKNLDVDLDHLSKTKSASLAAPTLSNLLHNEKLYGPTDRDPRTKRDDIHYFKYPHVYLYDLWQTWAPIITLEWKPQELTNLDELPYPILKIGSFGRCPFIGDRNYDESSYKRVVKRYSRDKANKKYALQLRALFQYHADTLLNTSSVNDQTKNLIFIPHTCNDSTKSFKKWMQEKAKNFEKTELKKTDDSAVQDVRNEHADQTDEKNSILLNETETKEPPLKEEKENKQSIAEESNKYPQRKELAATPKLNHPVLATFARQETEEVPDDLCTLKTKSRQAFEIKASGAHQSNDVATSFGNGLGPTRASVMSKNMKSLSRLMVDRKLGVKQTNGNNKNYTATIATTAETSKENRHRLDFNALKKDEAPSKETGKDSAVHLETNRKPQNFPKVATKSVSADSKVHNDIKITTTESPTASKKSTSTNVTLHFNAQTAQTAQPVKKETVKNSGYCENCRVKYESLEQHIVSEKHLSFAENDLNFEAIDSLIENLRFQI

[2] = target: T2, HsDbf4 (human Dbf4) as used in the reciprocal experiment of Figure S1 (human) (UniProt Q9UBU7); assay: co-IP; reciprocal experiment in which antibodies to the human proteins were used (Figure S1)
T2 sequence: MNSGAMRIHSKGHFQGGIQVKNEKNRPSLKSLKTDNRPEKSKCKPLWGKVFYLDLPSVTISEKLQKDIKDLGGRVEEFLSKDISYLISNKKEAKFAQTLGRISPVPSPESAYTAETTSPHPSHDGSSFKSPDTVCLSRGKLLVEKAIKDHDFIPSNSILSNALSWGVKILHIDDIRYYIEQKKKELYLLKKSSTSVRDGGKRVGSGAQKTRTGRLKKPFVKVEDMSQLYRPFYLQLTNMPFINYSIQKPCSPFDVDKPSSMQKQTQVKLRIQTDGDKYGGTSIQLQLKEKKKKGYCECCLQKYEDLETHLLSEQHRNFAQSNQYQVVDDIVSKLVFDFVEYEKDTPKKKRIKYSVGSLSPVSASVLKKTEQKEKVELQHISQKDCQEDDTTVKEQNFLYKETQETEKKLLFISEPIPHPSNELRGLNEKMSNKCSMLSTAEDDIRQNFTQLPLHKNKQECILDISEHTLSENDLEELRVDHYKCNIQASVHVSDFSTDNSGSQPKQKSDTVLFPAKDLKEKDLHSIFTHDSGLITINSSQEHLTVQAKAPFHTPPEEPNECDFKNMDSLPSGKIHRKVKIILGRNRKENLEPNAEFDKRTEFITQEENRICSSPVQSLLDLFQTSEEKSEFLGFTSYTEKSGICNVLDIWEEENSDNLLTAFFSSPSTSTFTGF

[3] = target: TAP-ScCdc7 (S. cerevisiae Cdc7 with a tandem affinity purification tag) (S. cerevisiae) (UniProt P06243); assay: co-IP; TAP-tagged bait isolated from yeast cell extract on rabbit IgG coupled Epoxy M270 Dynabeads, 2 h at 4°; lysis buffer 25 mM Tris-HCl pH 8.0, 150 mM NaCl, 0.1 mM EDTA, 0.1% NP40; bound proteins detected by Western blotting
[4] = target: HsCdc7 (human Cdc7) as used in the reciprocal experiment of Figure S1 (human) (UniProt O00311); assay: co-IP; reciprocal experiment in which antibodies to the human proteins were used (Figure S1)

myc^9-HsCdc7 (myc9-tagged human Cdc7) (from UniProt O00311 1-574)
binding [1]: no binding

ScCdc7 (S. cerevisiae Cdc7) (from UniProt P06243 1-507)
binding [2]: no binding

B1: myc^9-HsDbf4 (myc9-tagged human Dbf4) (protein, UniProt Q9UBU7 1-674)
chain: T2 sequence
binding [3]: no binding

B2: ScDbf4 (S. cerevisiae Dbf4) (protein, UniProt P32325 1-704)
chain: T1 sequence
binding [4]: no binding
